Assay results published in the supplement of paper PMC10849652.
Some of the results follow.

The chains behind the UniProt entries cited, without tags or fusion partners. Where a name states a change or a piece, a line headed by the entry shows the natural chain unless it says otherwise.
UniProt Q7Z5U6: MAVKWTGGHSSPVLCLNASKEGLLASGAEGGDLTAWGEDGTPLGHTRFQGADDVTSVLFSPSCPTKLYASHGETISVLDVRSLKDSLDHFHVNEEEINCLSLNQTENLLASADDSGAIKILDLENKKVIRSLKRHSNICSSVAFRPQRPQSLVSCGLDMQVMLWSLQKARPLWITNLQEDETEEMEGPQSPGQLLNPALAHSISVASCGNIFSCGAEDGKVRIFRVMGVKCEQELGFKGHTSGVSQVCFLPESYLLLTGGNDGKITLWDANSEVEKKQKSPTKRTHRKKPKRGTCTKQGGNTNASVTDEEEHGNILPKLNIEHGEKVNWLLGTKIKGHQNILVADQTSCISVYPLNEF
UniProt P51811: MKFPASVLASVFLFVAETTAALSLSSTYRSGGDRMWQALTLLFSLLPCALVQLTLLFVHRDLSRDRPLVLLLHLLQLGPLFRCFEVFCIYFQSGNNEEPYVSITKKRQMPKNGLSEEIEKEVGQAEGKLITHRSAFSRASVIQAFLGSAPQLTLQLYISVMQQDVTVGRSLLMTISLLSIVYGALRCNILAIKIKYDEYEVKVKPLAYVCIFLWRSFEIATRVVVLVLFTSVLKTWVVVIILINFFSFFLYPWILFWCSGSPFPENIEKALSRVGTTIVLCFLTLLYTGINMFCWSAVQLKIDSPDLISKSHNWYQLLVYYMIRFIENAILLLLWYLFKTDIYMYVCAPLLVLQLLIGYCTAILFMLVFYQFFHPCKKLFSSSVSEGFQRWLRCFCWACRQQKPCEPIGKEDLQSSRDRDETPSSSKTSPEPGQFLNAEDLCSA
UniProt Q9H967: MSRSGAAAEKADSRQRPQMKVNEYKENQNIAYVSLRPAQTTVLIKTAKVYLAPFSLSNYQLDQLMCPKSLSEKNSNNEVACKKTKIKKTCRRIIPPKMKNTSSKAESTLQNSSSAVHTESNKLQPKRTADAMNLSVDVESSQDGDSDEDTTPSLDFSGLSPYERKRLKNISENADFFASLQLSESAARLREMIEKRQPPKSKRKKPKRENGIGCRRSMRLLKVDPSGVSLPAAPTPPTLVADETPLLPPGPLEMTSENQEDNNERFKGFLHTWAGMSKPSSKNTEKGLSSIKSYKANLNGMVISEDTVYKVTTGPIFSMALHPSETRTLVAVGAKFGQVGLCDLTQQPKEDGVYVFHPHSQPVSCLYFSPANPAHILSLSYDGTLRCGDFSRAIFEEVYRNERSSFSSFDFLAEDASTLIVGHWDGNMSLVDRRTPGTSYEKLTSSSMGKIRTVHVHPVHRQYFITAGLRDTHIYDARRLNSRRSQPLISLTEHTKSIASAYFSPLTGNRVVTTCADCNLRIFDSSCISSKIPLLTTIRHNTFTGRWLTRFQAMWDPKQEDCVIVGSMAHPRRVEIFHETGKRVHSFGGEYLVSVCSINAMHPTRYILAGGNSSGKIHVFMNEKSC
UniProt Q96P53: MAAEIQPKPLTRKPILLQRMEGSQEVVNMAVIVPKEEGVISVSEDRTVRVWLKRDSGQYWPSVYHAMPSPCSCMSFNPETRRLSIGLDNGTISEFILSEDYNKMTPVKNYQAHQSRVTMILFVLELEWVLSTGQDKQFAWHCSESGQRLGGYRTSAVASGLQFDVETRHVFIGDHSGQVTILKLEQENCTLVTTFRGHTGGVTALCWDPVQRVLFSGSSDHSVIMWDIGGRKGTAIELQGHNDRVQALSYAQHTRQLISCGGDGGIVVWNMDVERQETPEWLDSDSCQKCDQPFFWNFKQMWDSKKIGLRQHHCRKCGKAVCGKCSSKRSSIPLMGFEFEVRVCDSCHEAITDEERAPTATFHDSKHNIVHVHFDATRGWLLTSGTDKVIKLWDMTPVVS
UniProt Q15906, whole entry, looked up: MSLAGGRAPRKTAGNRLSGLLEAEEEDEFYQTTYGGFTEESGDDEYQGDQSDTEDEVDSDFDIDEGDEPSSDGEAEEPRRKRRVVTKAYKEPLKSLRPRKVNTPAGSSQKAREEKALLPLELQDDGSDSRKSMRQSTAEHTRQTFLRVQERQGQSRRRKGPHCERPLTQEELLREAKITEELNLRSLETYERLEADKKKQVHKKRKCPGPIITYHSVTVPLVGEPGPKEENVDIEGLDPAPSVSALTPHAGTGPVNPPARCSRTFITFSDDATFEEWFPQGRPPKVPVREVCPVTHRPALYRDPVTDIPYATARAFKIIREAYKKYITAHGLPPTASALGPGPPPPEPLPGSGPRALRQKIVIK
UniProt Q9H977: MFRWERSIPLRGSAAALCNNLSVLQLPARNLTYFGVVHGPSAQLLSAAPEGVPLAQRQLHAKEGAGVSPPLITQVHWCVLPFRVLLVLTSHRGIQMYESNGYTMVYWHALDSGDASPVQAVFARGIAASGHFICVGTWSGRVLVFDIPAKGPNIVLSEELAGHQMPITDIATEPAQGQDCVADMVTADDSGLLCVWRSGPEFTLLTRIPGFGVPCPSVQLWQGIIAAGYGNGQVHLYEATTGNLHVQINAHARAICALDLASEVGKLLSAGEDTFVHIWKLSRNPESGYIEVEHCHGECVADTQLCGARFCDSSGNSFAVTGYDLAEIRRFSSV
UniProt P42768: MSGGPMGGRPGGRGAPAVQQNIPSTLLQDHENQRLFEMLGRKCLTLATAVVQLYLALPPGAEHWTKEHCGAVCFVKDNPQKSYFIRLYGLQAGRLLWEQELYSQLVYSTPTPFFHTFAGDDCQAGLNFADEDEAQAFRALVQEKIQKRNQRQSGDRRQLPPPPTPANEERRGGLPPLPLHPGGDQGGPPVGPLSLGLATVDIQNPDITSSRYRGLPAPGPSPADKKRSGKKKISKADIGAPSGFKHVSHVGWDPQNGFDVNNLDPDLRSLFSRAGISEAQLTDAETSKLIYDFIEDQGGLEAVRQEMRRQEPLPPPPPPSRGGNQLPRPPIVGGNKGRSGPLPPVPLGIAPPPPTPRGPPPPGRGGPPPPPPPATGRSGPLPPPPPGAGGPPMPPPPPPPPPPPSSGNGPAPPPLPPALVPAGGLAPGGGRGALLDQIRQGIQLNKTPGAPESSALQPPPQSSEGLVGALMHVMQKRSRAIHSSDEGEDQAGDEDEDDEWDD
UniProt Q9BRX9: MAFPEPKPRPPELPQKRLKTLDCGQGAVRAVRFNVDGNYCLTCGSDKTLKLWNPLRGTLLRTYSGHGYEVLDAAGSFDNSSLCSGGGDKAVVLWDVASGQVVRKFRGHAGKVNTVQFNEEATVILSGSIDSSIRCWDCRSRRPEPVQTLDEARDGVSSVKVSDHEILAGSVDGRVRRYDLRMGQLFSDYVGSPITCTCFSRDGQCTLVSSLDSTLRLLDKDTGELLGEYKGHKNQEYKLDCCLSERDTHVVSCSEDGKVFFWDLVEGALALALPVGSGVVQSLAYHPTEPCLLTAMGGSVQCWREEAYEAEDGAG
UniProt Q9BTA9: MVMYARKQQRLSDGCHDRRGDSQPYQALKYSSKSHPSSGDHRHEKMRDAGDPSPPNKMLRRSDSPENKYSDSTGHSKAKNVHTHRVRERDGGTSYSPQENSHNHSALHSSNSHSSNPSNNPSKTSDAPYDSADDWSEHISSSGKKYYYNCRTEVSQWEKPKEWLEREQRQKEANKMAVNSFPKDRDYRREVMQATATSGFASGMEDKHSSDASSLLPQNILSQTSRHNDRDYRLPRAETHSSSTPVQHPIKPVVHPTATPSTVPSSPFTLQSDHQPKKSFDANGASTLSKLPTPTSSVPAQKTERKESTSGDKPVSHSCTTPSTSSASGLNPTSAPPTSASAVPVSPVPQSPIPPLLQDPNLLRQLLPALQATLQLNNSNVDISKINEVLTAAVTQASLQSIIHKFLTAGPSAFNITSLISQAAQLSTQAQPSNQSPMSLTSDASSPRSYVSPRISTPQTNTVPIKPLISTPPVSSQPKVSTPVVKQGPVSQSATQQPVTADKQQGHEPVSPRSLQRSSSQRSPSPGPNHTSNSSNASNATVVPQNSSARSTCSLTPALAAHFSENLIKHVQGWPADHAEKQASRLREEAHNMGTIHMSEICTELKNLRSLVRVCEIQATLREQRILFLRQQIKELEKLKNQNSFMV
UniProt P17861: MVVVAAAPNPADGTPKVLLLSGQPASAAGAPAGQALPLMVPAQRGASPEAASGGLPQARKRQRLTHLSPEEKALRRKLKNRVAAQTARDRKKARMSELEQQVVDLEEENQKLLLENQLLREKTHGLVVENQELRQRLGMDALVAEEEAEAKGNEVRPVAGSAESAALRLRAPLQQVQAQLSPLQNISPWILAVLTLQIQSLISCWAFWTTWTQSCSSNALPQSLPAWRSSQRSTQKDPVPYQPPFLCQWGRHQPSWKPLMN
UniProt Q9NQA3: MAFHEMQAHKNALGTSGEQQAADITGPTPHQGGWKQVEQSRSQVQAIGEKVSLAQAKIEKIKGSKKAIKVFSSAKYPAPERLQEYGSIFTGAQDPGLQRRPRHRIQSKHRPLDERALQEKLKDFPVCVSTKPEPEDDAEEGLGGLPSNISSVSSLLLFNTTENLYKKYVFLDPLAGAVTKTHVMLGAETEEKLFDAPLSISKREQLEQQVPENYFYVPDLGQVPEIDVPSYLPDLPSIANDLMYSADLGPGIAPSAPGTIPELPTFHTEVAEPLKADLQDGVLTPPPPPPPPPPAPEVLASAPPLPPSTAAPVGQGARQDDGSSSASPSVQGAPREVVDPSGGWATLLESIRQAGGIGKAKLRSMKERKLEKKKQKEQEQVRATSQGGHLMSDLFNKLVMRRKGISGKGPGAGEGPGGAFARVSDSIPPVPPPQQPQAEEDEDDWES
UniProt Q9HD64: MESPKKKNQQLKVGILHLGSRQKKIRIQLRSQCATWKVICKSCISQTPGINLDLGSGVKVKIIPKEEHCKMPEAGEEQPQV
UniProt Q96HA8: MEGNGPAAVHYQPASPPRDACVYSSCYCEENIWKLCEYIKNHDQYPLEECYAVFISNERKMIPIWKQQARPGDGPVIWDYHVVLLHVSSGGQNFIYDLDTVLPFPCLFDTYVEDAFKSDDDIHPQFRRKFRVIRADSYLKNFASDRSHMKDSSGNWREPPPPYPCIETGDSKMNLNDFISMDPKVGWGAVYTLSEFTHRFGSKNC
UniProt Q5T750: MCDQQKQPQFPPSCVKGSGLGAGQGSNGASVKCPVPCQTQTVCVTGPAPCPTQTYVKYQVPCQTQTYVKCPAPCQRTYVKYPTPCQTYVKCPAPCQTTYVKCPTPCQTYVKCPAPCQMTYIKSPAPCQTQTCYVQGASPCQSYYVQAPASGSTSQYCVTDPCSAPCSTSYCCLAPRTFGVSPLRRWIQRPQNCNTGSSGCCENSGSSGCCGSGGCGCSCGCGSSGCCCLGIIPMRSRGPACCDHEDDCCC

What was measured:
Assay in all cases: log2 fold change, soluble protein after heating vs DMSO (PISA); higher = thermal stabilisation; K562 lysate, 10 uM; active = over 0.2 and 3.5 SD of the protein, either way, in both replicates (recomputed)
erlotinib = compound: C#Cc1cccc(Nc2ncnc3cc(OCCOC)c(OCCOC)cc23)c1 [erlotinib]
How it was run: (§1)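 K562 pellets were dounce-homogenised in PBS pH 7.4 containing 1 mM MgCl2, and the crude extract, at 1 mg/mL protein, was exposed to 10 μM compound for 30 min. Aliquots were heated for 3 min across 48°C-58°C, pooled, brought to 0.5% NP-40 at 4°C and spun at 21,000xg for 90 min, with the supernatant taken as soluble protein. TMTpro 16plex LC-MS/MS with equalised channel sums quantified that protein. Values are log-two fold changes in thermal stability relative to solvent controls, taken from duplicates.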

[1] = compound: C/C(=N\NC(=O)C1=CC(=CC=C1)S(=O)(=O)N2CCOCC2)/C3=C(C=CC(=C3)Cl)O
How it was run: as §1

[2] = compound: C1=CC(=CC=C1C2=NC3=C(N2)C=C(C=C3)C(=O)N)OC4=CC=C(C=C4)Cl
How it was run: as §1

[3] = compound: C1=CC2=C(C=CC(=C2)/C=C\3/C(=O)NC(=NCC4=CC=CS4)S3)N=C1
How it was run: as §1

[4] = compound: C1=CC2=NC=CN=C2C=C1/C=C/3\C(=O)NC(=O)S3
How it was run: as §1

[5] = compound: C1=CC=C(C=C1)C2=NC(=C(N2)C3=CC=NC=C3)C4=CC(=C(C=C4)Cl)O
How it was run: as §1

[6] = compound: C1=CC=C2C(=C1)C3=NNC4=CC=CC(=C43)C2=O
How it was run: as §1

[7] = compound: C1CCN(C1)C(=O)NC2=CC=CC(=C2)NC3=NC=C(C(=N3)NCCC4=CN=CN4)Br
How it was run: as §1

[8] = compound: C1CN(CCC1(CC2=CC=C(C=C2)Cl)N)C3=NC=NC4=C3C=CN4
How it was run: as §1

IRAK-1-4 Inhibitor I = compound: C1COCCN1CCN2C3=CC=CC=C3N=C2NC(=O)C4=CC(=CC=C4)[N+](=O)[O-] [IRAK-1-4 Inhibitor I]
How it was run: as §1

ibrutinib = compound: C=CC(=O)N1CCC[C@@H](n2nc(-c3ccc(Oc4ccccc4)cc3)c3c(N)ncnc32)C1 [ibrutinib]
How it was run: as §1

ralimetinib = compound: CC(C)(C)Cn1c(N)nc2ccc(-c3[nH]c(C(C)(C)C)nc3-c3ccc(F)cc3)nc21 [ralimetinib]
How it was run: as §1

[9] = compound: CC(C)(O)CC(=O)NCCn1ccc2ncnc(Nc3ccc(Oc4cccc(C(F)(F)F)c4)c(Cl)c3)c21
How it was run: as §1

[10] = compound: CC(C)C1=C2N=C(C=C(N2N=C1)NCC3=CC=CC=C3)NCCCCCCN
How it was run: as §1

[11] = compound: CC1=C(C(CC(=O)N1)C2=CC=C(C=C2)C(F)(F)F)C(=O)NC3=C(C=C4C(=C3)C=NN4)F
How it was run: as §1

[12] = compound: CC1=C(C2=C(C=C1)C(=O)C3=CC=CC=C3N2CCCN)C
How it was run: as §1

[13] = compound: CC1=C(C=C(C=C1)NC(=O)C2=CC(=CC=C2)C(C)(C)C#N)NC3=CC4=C(C=C3)N=CN(C4=O)C
How it was run: as §1

[14] = compound: CC1=C(C=C(C=C1)NC(=O)C2=CC(=CC=C2)N(C)C)NC(=O)C3=CC=C(C=C3)O
How it was run: as §1

[15] = compound: CC(=O)c1cnc2ccc(-c3cc(Cl)c(O)c(Cl)c3)nc2c1N[C@H]1CC[C@H](CN(C)C)CC1
How it was run: as §1

[16] = compound: CC1=CC=C(C=C1)SC2=C3C=C(SC3=CN=C2)C(=O)N
How it was run: as §1

Measured: log2 fold change

WDR53 (UniProt Q7Z5U6)
inactive: erlotinib -0.085 | [1] -0.391 | [2] 0.085 | [3] 0.014 | [4] 0.118 | [5] 0.041 | [6] 0.123 | [7] -0.038 | [8] 0.036 | IRAK-1-4 Inhibitor I 0.004 | ibrutinib -0.027 | ralimetinib 0.027 | [9] -0.033 | [10] -0.035 | [11] -0.039 | [12] 0.008 | [13] 0.01 | [14] 0.002

VPS35L (UniProt Q7Z3J2)
inactive: erlotinib 0.005 | [1] -0.016 | [2] -0.028 | [3] -0.001 | [4] 0.002 | [5] 0.006 | [6] -0.038 | [7] -0.028 | [8] 0.006 | IRAK-1-4 Inhibitor I 0.04 | ibrutinib 0.011 | [15] 0.023 | ralimetinib -0.003 | [9] -0.032 | [10] 0.003 | [11] 0.007 | [12] 0.018 | [13] -0.021 | [14] 0.009 | [16] -0.005

WARS1 (UniProt G3V277)
inactive: [1] 1.02 | [3] -0.06 | [4] -0.07 | [6] 0.021 | [7] -0.101 | [8] -0.044 | ibrutinib 0.152

XK (UniProt P51811)
inactive: erlotinib -0.114 | [2] 0.144 | [4] -0.004 | [5] -0.146 | [7] -0.012 | [8] 0 | IRAK-1-4 Inhibitor I 0.004 | ibrutinib 0.011 | [15] -0.358 | ralimetinib -0.028 | [9] -0.03 | [10] 0.012 | [11] 1.4 | [12] 0.086 | [14] 0.007 | [16] 0.137

WDR66 (UniProt Q8TBY9)
inactive: [1] 0.51 | [3] -0.06 | [5] -0.077 | [6] -0.095 | IRAK-1-4 Inhibitor I 0.074 | ralimetinib -0.04 | [9] -0.276 | [14] -0.062

WDR46, A0A0G2JJL1
inactive: [1] -0.86 | [3] 0.107 | [4] 0.142 | [5] -0.041 | [6] -0.148 | IRAK-1-4 Inhibitor I -0.041 | ibrutinib -0.052 | [15] 0.02 | ralimetinib 0.102 | [9] -0.096 | [11] 0.026 | [12] -0.031 | [14] 0.028 | [16] 0.056

XIRP2 isoform 8 (UniProt A4UGR9)
inactive: [4] 0.059 | [5] 0.02 | IRAK-1-4 Inhibitor I 0.02 | ibrutinib 0.134 | [15] -0.059 | ralimetinib 0.166 | [9] 0.037 | [11] 0.108 | [14] 0.055 | [16] 0.019

WDR76 (UniProt Q9H967)
inactive: [5] -0.074 | [7] 0 | [8] -0.028 | IRAK-1-4 Inhibitor I 0.107 | ralimetinib 0.084 | [9] 0.061 | [11] 0.058 | [12] -0.052 | [13] 0.028 | [14] 0.05

WDFY2 (UniProt Q96P53)
inactive: erlotinib 0 | [2] 0.166 | [10] 0.005 | [12] -0.104

VPS72 (UniProt Q15906)
inactive: erlotinib 0.056 | [1] -0.036 | [2] 0.046 | [3] -0.057 | [5] -0.04 | [6] 0.052 | [7] 0.024 | [8] 0.059 | IRAK-1-4 Inhibitor I -0.008 | [15] 0.016 | ralimetinib 0.046 | [9] -0.06 | [10] -0.028 | [11] -0.098 | [12] 0.005 | [13] 0 | [14] -0.01 | [16] -0.038

WDR54 isoform 4 (UniProt Q9H977)
inactive: [1] -0.06 | [3] 0.048 | [4] 0.017 | [6] -0.149 | [7] 0.082 | [8] -0.066 | ibrutinib -0.043 | [12] -0.001 | [13] -0.023

WAS (UniProt P42768)
inactive: erlotinib 0.023 | [2] 0.074 | [4] -0.149 | [7] 0.007 | [8] 0.026 | ibrutinib -0.06 | [10] -0.01 | [11] 0.071 | [12] 0.143

WDR83 (UniProt Q9BRX9)
inactive: [1] -0.139 | [3] 0.051 | [4] 0.086 | [5] 0.009 | [6] 0.038 | IRAK-1-4 Inhibitor I -0.331 | ibrutinib -0.098 | [15] 0.067 | ralimetinib -0.006 | [9] -0.004 | [11] -0.333 | [12] 0.019 | [14] 0.131 | [16] -0.01

WAC isoform 5 (UniProt Q9BTA9)
inactive: erlotinib -0.01 | [2] -0.156 | [5] 0.062 | IRAK-1-4 Inhibitor I 0.018 | ralimetinib 0.059 | [9] -0.145 | [10] -0.038 | [12] 0.127 | [14] 0.096

WDTC1 (UniProt Q8N5D0)
inactive: erlotinib 0.025 | [1] 0.006 | [2] -0.044 | [3] 0.04 | [4] 0.006 | [5] 0.058 | [6] -0.01 | [7] -0.021 | [8] 0.038 | IRAK-1-4 Inhibitor I 0.008 | ibrutinib 0.03 | [15] -0.013 | ralimetinib 0.025 | [9] -0.007 | [10] 0.043 | [11] 0.077 | [12] 0.018 | [13] -0.024 | [14] 0.052 | [16] -0.012

2 neighbouring entries out of the list so far:
WDR83 (UniProt Q9BRX9)
inactive: [1] -0.139 | [3] 0.051 | [4] 0.086 | [5] 0.009 | [6] 0.038 | IRAK-1-4 Inhibitor I -0.331 | ibrutinib -0.098 | [15] 0.067 | ralimetinib -0.006 | [9] -0.004 | [11] -0.333 | [12] 0.019 | [14] 0.131 | [16] -0.01

WAC isoform 5 (UniProt Q9BTA9)
inactive: erlotinib -0.01 | [2] -0.156 | [5] 0.062 | IRAK-1-4 Inhibitor I 0.018 | ralimetinib 0.059 | [9] -0.145 | [10] -0.038 | [12] 0.127 | [14] 0.096

The results go on.

XBP1 isoform 2 (UniProt P17861)
inactive: erlotinib -0.045 | [2] -0.126 | [5] 0.074 | IRAK-1-4 Inhibitor I 0.063 | ralimetinib -0.082 | [9] -0.083 | [10] -0.022 | [14] -0.091

WASH6P (UniProt Q9NQA3)
inactive: [4] 0.195 | ibrutinib -0.08

XAGE1A (UniProt Q9HD64)
inactive: [1] 0.218 | [3] -0.185 | [4] -0.055 | [6] -0.138 | [7] -0.468 | [8] 0.102 | ibrutinib -0.079 | [11] 0.121

WDYHV1 (UniProt Q96HA8)
inactive: erlotinib 0.064 | [1] -0.295 | [2] -0.086 | [3] 0.068 | [5] 0.146 | [6] -0.111 | [7] -0.013 | [8] -0.064 | IRAK-1-4 Inhibitor I -0.116 | [15] 0.038 | ralimetinib -0.027 | [9] 0.197 | [10] -0.144 | [11] 0.068 | [12] 0.017 | [13] 0.013 | [14] 0.091 | [16] 0.088

XP32 (UniProt Q5T750)
inactive: [13] 0.097
